Results deposited as PubChem BioAssay AID493246 (Drosophila RNAi Screening Center, 2011)
In all, the deposit lists about 21,000 reagents; shown is a random part of those with a known target gene and a result. Over the whole deposit, 429 (2%) are marked active. 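Values are raw and not normalised between plates; calls rest on per-plate z-scores that were not deposited.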 Reagents against one gene are numbered here. Not stated in the record: the amount of reagent, the time to read-out.

Test: 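Genome-wide search for dsRNAs that reduce cell number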 (primary screen)
System: Drosophila Kc and S2R+ cells
Knock-down reagent: long dsRNA against Drosophila genes
Measurement: 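Cell number per well after knock-down, printed as raw plate values; calls were based on per-plate z-scores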
Scale: Kc cell number and S2R+ cell number: higher = more cells remaining
Hit rule: 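Active when the per-plate z-score of cell number is 3 or more in the direction of fewer cells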

no.	target gene	dsRNA no.	Kc cell number, rep 1	Kc cell number, rep 2	S2R+ cell number, rep 1	S2R+ cell number, rep 2	outcome
1	GatB	1	1.63e6	1.60e6	1.02e6	1.12e6	inactive
2	Mnr	1	1.56e6	1.52e6	1.12e6	1.23e6	inactive
3	Mnr	2	1.41e6	1.37e6	1.01e6	1.16e6	inactive
4	Naa20A	1	1.57e6	1.70e6	1.04e6	1.20e6	inactive
5	Cap-D3	1	1.48e6	1.34e6	1.10e6	1.28e6	inactive
6	pch2	1	1.39e6	1.49e6	1.05e6	1.19e6	inactive
7	CG12106	1	5.79e5		9.61e5		inactive
8	CG3513	1	1.57e6	1.49e6	1.17e6	1.31e6	inactive
9	CCT4	1	1.55e6	1.59e6	1.31e6	1.45e6	inactive
10	SMC2	1	1.47e6	1.50e6	1.18e6	1.26e6	inactive
11	PIG-U	1	1.23e6	1.09e6	7.61e5	7.47e5	inactive
12	CG40378 (retired record)	1	1.53e6	1.78e6	1.18e6	1.23e6	inactive
13	CG12099	1	1.70e6	1.69e6	1.05e6	1.50e6	inactive

7 consecutive entries already listed, quoted:
no.	target gene	dsRNA no.	Kc cell number, rep 1	Kc cell number, rep 2	S2R+ cell number, rep 1	S2R+ cell number, rep 2	outcome
4	Naa20A	1	1.57e6	1.70e6	1.04e6	1.20e6	inactive
5	Cap-D3	1	1.48e6	1.34e6	1.10e6	1.28e6	inactive
6	pch2	1	1.39e6	1.49e6	1.05e6	1.19e6	inactive
7	CG12106	1	5.79e5		9.61e5		inactive
8	CG3513	1	1.57e6	1.49e6	1.17e6	1.31e6	inactive
9	CCT4	1	1.55e6	1.59e6	1.31e6	1.45e6	inactive
10	SMC2	1	1.47e6	1.50e6	1.18e6	1.26e6	inactive

Further results follow.
no.	target gene	dsRNA no.	Kc cell number, rep 1	Kc cell number, rep 2	S2R+ cell number, rep 1	S2R+ cell number, rep 2	outcome
14	CG8003	1	1.28e6	1.37e6	1.29e6	1.07e6	inactive
15	CG13841	1	1.34e6	1.38e6	7.97e5	9.62e5	inactive
16	CG17944	1	1.53e6	1.67e6	1.25e6	1.31e6	inactive
17	CG13585	1	1.71e6	1.75e6	1.39e6	1.49e6	inactive
18	Rtnl2	1	1.49e6	1.60e6	1.28e6	1.41e6	inactive
19	JMJD6	1	1.71e6	1.90e6	1.16e6	1.15e6	inactive
20	CG17919	1	1.47e6	1.57e6	1.29e6	1.34e6	inactive
21	CG12674	1	1.43e6	1.51e6	1.00e6	1.15e6	inactive
22	CG11180	1	1.39e6	1.44e6	1.10e6	1.15e6	inactive
23	CG15710	1	1.50e6	1.58e6	1.15e6	1.32e6	inactive
24	Zmynd8	1	4.76e5		7.69e5		inactive
25	rdgA	1	1.59e6	1.61e6	1.13e6	1.24e6	inactive
26	rdgA	2	1.58e6	1.57e6	1.13e6	1.23e6	inactive
27	rdgA	3	6.40e5		9.62e5		inactive
28	cGlr1	1	1.69e6	1.68e6	1.17e6	1.28e6	inactive
29	rk	1	1.53e6	1.57e6	1.23e6	1.37e6	inactive
30	Jhbp6	1	1.54e6	1.66e6	1.20e6	1.37e6	inactive
31	CG12645	1	1.80e6	1.63e6	1.14e6	1.28e6	inactive
32	wls	1	1.38e6	1.51e6	1.35e6	1.13e6	inactive
33	slf	1	1.49e6	1.37e6	1.11e6	1.22e6	inactive
34	Fa2h	1	1.53e6	1.56e6	1.28e6	1.48e6	inactive
35	Fa2h	2	1.53e6	1.61e6	1.20e6	1.35e6	inactive
36	CG2652	1	1.36e6	1.63e6	9.26e5	1.14e6	inactive
37	CG11131	1	1.58e6	1.74e6	1.46e6	1.51e6	inactive
38	SecCl	1	1.29e6	1.44e6	1.26e6	1.32e6	inactive
39	LpR1	1	5.35e5		7.78e5		inactive
40	LpR1	2	1.42e6	1.54e6	9.54e5	1.05e6	inactive
41	LpR1	3	1.58e6	1.64e6	9.92e5	1.07e6	inactive
